Measured data: PubChem BioAssay AID743454 (Peter MacCallum Cancer Centre, 2014)
Here is one part, drawn at random, of about 18,000 reagents tested. Of all reagents, 450 (2.5%) were called active. 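Single biological run; no consistent viability z cut-off exists, so the class columns, not z-scores, define the calls.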 Unmarked entries are inactive. No sequences are given here.

Aim: 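Knock-downs lowering viability or raising caspase 3/7 activity in vorinostat-treated resistant cells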 (primary screen)
Cells: human HCT116-VR colon cancer cells, selected for vorinostat resistance
Reagents: siRNA pool against human genes, 40 nM siRNA pool
Time to read-out: vorinostat for 24 h, read-out about 72 h after transfection
Challenge: vorinostat at 2.5 µM final
Detection: 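Cell viability by CellTiter-Fluor and caspase 3/7 activity by luminescence, each scaled to mock wells per plate, duplicates averaged, then robust z-scored over all plates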
Scale: viability robust z-score: higher = more viable cells than screen typical; caspase robust z-score: higher = more caspase 3/7 activity than screen typical
Hit rule: 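a knock-down is a hit when classed RV1 or RV2 for lowered viability, or CA1 or CA2 for caspase activation; those lethal without drug were dropped; hits were retested singly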

gene knocked down | viability hit class | caspase hit class | viability robust z-score | caspase robust z-score
AZGP1 (GeneID 563) | no change | no change | -0.94 | 1.38
MIPOL1 (GeneID 145282) | no change | no change | 0.46 | -0.35
DLL4 (GeneID 54567) | no change | no change | -0.29 | 0.47
DCAF1 (GeneID 9730) | no change | no change | -1.68 | -0.25
EOLA1 (GeneID 91966) | no change | no change | 0.67 | -0.06
UVRAG (GeneID 7405) | no change | no change | 0 | 0.92
TMEM244 (GeneID 253582) | no change | no change | 0.95 | -0.74
ZNF12 (GeneID 7559) | no change | no change | 1.67 | 2.45
TANC1 (GeneID 85461) | no change | no change | 0.12 | 1.62
PGLYRP4 (GeneID 57115) | no change | no change | -0.02 | -0.73
CRYBB2 (GeneID 1415) | no change | no change | -0.18 | -1.06
HTR1D (GeneID 3352) | no change | no change | 0.32 | -1.08
ZNF208 (GeneID 7757) | no change | no change | 1.06 | -0.02
RCC2 (GeneID 55920) | no change | no change | 0.55 | -0.54
AIF1 (GeneID 199) | no change | no change | 0.38 | 0.82
BBX (GeneID 56987) | no change | no change | -0.86 | -0.44
LPAR3 (GeneID 23566) | no change | no change | -2.21 | 1.23
FMO2 (GeneID 2327) | no change | no change | 0.7 | 0.7
LRSAM1 (GeneID 90678) | no change | no change | 0.6 | 2.79
AOC2 (GeneID 314) | no change | no change | -0.44 | -1.03
PSMC4 (GeneID 5704) | no change | no change | -5.04 | 0.77
PODN (GeneID 127435) | no change | no change | 2.19 | 0.22
SLC12A4 (GeneID 6560) | no change | no change | 1.36 | 0.74
CDADC1 (GeneID 81602) | no change | no change | 1.56 | -0.06
SEMA4B (GeneID 10509) | no change | no change | 0.56 | 2.38
OR52N2 (GeneID 390077) | no change | no change | 0.04 | 0.64
CLEC2D (GeneID 29121) | no change | no change | -1.21 | 1.77
FKBP14 (GeneID 55033) | no change | no change | 0.83 | 0.54
BLOC1S6 (GeneID 26258) | no change | no change | 0.89 | -0.78
RHOQ (GeneID 23433) | no change | no change | -0.3 | -1.14
CAMKK2 (GeneID 10645) | no change | no change | -1.19 | 0.22
DDX55 (GeneID 57696) | no change | no change | 0.41 | -1.08
CSH2 (GeneID 1443) | no change | no change | 1.18 | 0.84
ZNF48 (GeneID 197407) | no change (active) | CA2 (caspase activation) | -0.74 | 5.29
BMP2K (GeneID 55589) | no change | no change | 0.36 | 1.12
CORO2B (GeneID 10391) | no change | no change | -0.36 | 0.36
ACTN4 (GeneID 81) | no change | no change | 1.04 | -0.25
WFDC6 (GeneID 140870) | no change | no change | -2.55 | 1.14
CPSF4 (GeneID 10898) | no change | no change | 0.1 | -1.25
SAP30BP (GeneID 29115) | no change | no change | -1.6 | -0.57
INHA (GeneID 3623) | no change | no change | 1.63 | -0.66
RBM33 (GeneID 155435) | no change | no change | -0.6 | 2.04
GIMAP1 (GeneID 170575) | no change | no change | -0.01 | 0.3
RPL31 (GeneID 6160) | no change | no change | -4.33 | -0.82
LRRC3 (GeneID 81543) | no change | no change | -1.09 | -0.71
PISD (GeneID 23761) | no change | no change | -3.49 | 0.46
EXOSC8 (GeneID 11340) | no change | no change | -1.56 | 2.86
SMAD3 (GeneID 4088) | no change | no change | 0.7 | -0.06
VSTM1 (GeneID 284415) | no change | no change | -1.06 | 1.11
ABLIM2 (GeneID 84448) | no change | no change | -1 | 1.52
EMD (GeneID 2010) | no change | no change | -0.8 | -0.26
OR2W5 (GeneID 441932) | no change (active) | CA1 (caspase activation) | 0.07 | 7.18
IL2 (GeneID 3558) | no change | no change | 0.85 | -1.09
ZNF583 (GeneID 147949) | no change | no change | -0.38 | -0.92
DPRX (GeneID 503834) | no change | no change | 1.05 | -0.44
LSM2 (GeneID 57819) | no change | no change | -1.84 | 1
VSNL1 (GeneID 7447) | no change | no change | -1.19 | 2.09

7 entries from above in another layout:
BBX (GeneID 56987) | viability hit class = no change; caspase hit class = no change; viability robust z-score = -0.86; caspase robust z-score = -0.44
LPAR3 (GeneID 23566) | viability hit class = no change; caspase hit class = no change; viability robust z-score = -2.21; caspase robust z-score = 1.23
FMO2 (GeneID 2327) | viability hit class = no change; caspase hit class = no change; viability robust z-score = 0.7; caspase robust z-score = 0.7
LRSAM1 (GeneID 90678) | viability hit class = no change; caspase hit class = no change; viability robust z-score = 0.6; caspase robust z-score = 2.79
AOC2 (GeneID 314) | viability hit class = no change; caspase hit class = no change; viability robust z-score = -0.44; caspase robust z-score = -1.03
PSMC4 (GeneID 5704) | viability hit class = no change; caspase hit class = no change; viability robust z-score = -5.04; caspase robust z-score = 0.77
PODN (GeneID 127435) | viability hit class = no change; caspase hit class = no change; viability robust z-score = 2.19; caspase robust z-score = 0.22
